Drawing on PubChem BioAssay AID248 (DTP/NCI, 2004), this text covers survivor count and T/C for 29 compounds.

This test concerns L1210 leukemia ip in BDF1 mice, survival T/C. In words: NCI In Vivo Anticancer Drug Screen. Data for tumor model L1210 Leukemia (intraperitoneal) in B6D2F1 (BDF1) mice. As to conditions: T/C endpoint: mean survival time, higher T/C = longer survival.
Where [1] appears, read: dose: 200.0 mg/kg/injection, schedule: Q04DX003 (ip), vehicle: saline.
The mark [2] stands for this setting: dose: 400.0 mg/kg/injection, schedule: Q04DX003 (ip), vehicle: saline.
The mark [3] stands for this setting: dose: 100.0 mg/kg/injection, schedule: Q01DX009 (ip), vehicle: saline with Tween-80.
[4] abbreviates: dose: 400.0 mg/kg/injection, schedule: Q01DX001 (ip), vehicle: saline.
The mark [5] stands for this setting: dose: 400.0 mg/kg/injection, schedule: Q04DX003 (ip), vehicle: Klucel (hydroxypropylcellulose) (HPC).
Where [6] appears, read: dose: 400.0 mg/kg/injection, schedule: Q04DX002 (ip), vehicle: Klucel (hydroxypropylcellulose) (HPC).
Setting [7] is: dose: 400.0 mg/kg/injection, schedule: Q01DX009 (ip), vehicle: Klucel (hydroxypropylcellulose) (HPC).

The list is a part of this screen's results and no random one: it gathers tests that were run many times, whatever their T/C, doses with no T/C, and many T/C values between a quarter and a half above the control. Other doses and runs of a compound stand elsewhere. T/C is the treated group as % of the vehicle group. Some doses have a count of surviving animals in place of a T/C: the source holds a T/C of zero for them, seemingly a mark for toxic or unscored doses. Some doses without a T/C left all or most animals alive at the check, yet need not have been tolerated: the source hardly ever lists a survival T/C far under the control, and the zero likely stands for such cases as well. Survivors were counted at the toxicity check, usually on the fifth day, unless a day is given; later deaths do not show. Schedule codes are those of the source, read here as Q, the interval in days (D) or hours (H), X, the number of doses. Some schedule codes hold Z or #, which are not explained here. Where survival is the endpoint, the PubChem record calls one and a half times the control and up active, and a quarter to a half above the control has no call in these data; cut-offs in other NCI protocols can differ.

Consider `CC[N+](CC)(CC)CCCCC[N+](CC)(CC)CC`, for which the survivor count is recorded as 0 of 6 (dose: 50.0 mg/kg/injection, schedule: Q01DX009 (ip), vehicle: water); 0 of 6 (dose: 100.0 mg/kg/injection, schedule: Q04DX003 (ip), vehicle: saline with Tween-80); 2 of 6 (dose: 100.0 mg/kg/injection, schedule: Q04DX003 (ip), vehicle: saline); 0 of 6 (dose: 100.0 mg/kg/injection, schedule: Q04DX003 (ip), vehicle: water); 0 of 6 under setting [1]; 0 of 6 (dose: 200.0 mg/kg/injection, schedule: Q04DX003 (ip), vehicle: water). Further, the survivor count by setting is: under setting [2], 0 of 6; (dose: 400.0 mg/kg/injection, schedule: Q04DX003 (ip), vehicle: water) 0 of 6.

As for `Cc1cc([N+](=O)[O-])ccc1N=O`, the survivor count is, setting by setting: under setting [3], 5 of 6; (dose: 200.0 mg/kg/injection, schedule: Q01DX009 (ip), vehicle: saline with Tween-80) 6 of 6; (dose: 400.0 mg/kg/injection, schedule: Q01DX009 (ip), vehicle: saline with Tween-80) 6 of 6.

Regarding `[Cl][Hg][Cl].c1ccc(CSc2ccccc2)cc1`, the survivor count is 0 of 4 (dose: 10.0 mg/kg/injection, schedule: Q01DX001 (ip), vehicle: carboxymethylcellulose (CMC)); 0 of 4 (dose: 20.0 mg/kg/injection, schedule: Q01DX001 (ip), vehicle: carboxymethylcellulose (CMC)); 0 of 4 (dose: 40.0 mg/kg/injection, schedule: Q01DX001 (ip), vehicle: carboxymethylcellulose (CMC)); 0 of 4 (dose: 80.0 mg/kg/injection, schedule: Q01DX001 (ip), vehicle: carboxymethylcellulose (CMC)).

In the case of `CC(C)(C)C(=O)c1nn[nH]n1`, the survivor count was 2 of 6 (dose: 200.0 mg/kg/injection, schedule: Q01DX009 (ip), vehicle: saline) and 1 of 6 under setting [4].

On to `O=C(Nc1cccc2ccccc12)C(F)(F)F`, for which the survivor count is reported as 1 of 4 (dose: 200.0 mg/kg/injection, schedule: Q01DX001 (ip), vehicle: saline) and 0 of 4 under setting [4].

With `OCCN(CCO)CCN1c2ccccc2Sc2ccccc21`, the survivor count under setting [4] is 2 of 4.

Take `O=C(NCCCCN1CC1)C(=O)Nc1ccccc1`: the survivor count is given as 2 of 6 (dose: 200.0 mg/kg/injection, schedule: Q04DX003 (ip), vehicle: Klucel (hydroxypropylcellulose) (HPC)) and 0 of 6 under setting [5].

As to `Cc1cnc2cc(Cl)ccc2n1`, the survivor count under setting [5] is recorded as 6 of 6.

In the case of `O=C(CC(=O)c1ccccc1)Nc1ccc([N+](=O)[O-])cn1`, the survivor count (dose: 100.0 mg/kg/injection, schedule: Q04DX003 (ip), vehicle: Klucel (hydroxypropylcellulose) (HPC)) is listed as 6 of 6.

On to `CC1(C)N=C(N)N=C(N)N1c1cccc(OCCCOc2ccc(NC(=O)CBr)cc2)c1`, for which the survivor count reads like this: (dose: 150.0 mg/kg/injection, schedule: Q01DX009 (ip), vehicle: saline) 2 of 6; under setting [4], 0 of 4.

Turning to `CC(C)CN(CC(=O)N1CC(=O)Nc2ccccc21)CC(C)C`, the survivor count (dose: 50.0 mg/kg/injection, schedule: Q01DX009 (ip), vehicle: saline) was 6 of 6.

As for `CN1CCC=C(C(=O)N2c3ccccc3Sc3ccccc32)C1`, the survivor count under setting [1] is recorded as 1 of 6 and the survivor count under setting [2] is 0 of 6.

Regarding `CC(=O)Nc1nc(C)c(CCC(C)C)c(Cl)n1`, the survivor count by setting is: (dose: 100.0 mg/kg/injection, schedule: Q04DX002 (ip), vehicle: Klucel (hydroxypropylcellulose) (HPC)) 0 of 3; (dose: 200.0 mg/kg/injection, schedule: Q04DX002 (ip), vehicle: Klucel (hydroxypropylcellulose) (HPC)) 0 of 3; under setting [6], 0 of 3.

On to `CCCCNC(=O)OC`, for which the survivor count under setting [5] is on record as 2 of 6.

Turning to `CC[N+](C)(C)C`, the survivor count runs as follows: (dose: 100.0 mg/kg/injection, schedule: Q04DX002 (ip), vehicle: saline) 2 of 3; (dose: 200.0 mg/kg/injection, schedule: Q04DX002 (ip), vehicle: saline) 0 of 3; (dose: 400.0 mg/kg/injection, schedule: Q04DX002 (ip), vehicle: saline) 0 of 3.

With `Cc1ccc[nH]c1=O`, the survivor count under setting [2] is recorded as 1 of 6.

Take `C=CCNC(=S)Nc1cc(Cl)ccc1C`: the survivor count under setting [7] is 0 of 6.

For `O=C(NCCCNC(=O)Nc1ccc(C2=NCCN2)cc1)Nc1ccc(C2=NCCN2)cc1`, the T/C is 129 % of control (dose: 2.0 mg/kg/injection, schedule: Q01DX Z (ip), vehicle: carboxymethylcellulose (CMC)); 136 % of control (dose: 4.0 mg/kg/injection, schedule: Q01DX Z (ip), vehicle: carboxymethylcellulose (CMC)); 146 % of control (dose: 8.0 mg/kg/injection, schedule: Q01DX Z (ip), vehicle: carboxymethylcellulose (CMC)); 144 % of control (dose: 31.0 mg/kg/injection, schedule: Q01DX Z (ip), vehicle: water). Also, the survivor count is given as 2 of 6 (dose: 125.0 mg/kg/injection, schedule: Q01DX Z (ip), vehicle: water); 0 of 6 (dose: 250.0 mg/kg/injection, schedule: Q01DX Z (ip), vehicle: water); 0 of 6 (dose: 500.0 mg/kg/injection, schedule: Q01DX Z (ip), vehicle: water).

`O=C1c2cccc3c([N+](=O)[O-])ccc(c23)C(=O)N1Cc1cccnc1`: the survivor count under setting [6] was 1 of 3.

As to `Cc1cc(C)nc(NC(=O)Nc2cc(Cl)ccc2C)c1`, the survivor count (dose: 100.0 mg/kg/injection, schedule: Q01DX009 (ip), vehicle: Klucel (hydroxypropylcellulose) (HPC)) is reported as 3 of 3.

For the compound `CCCCCCCCC(=O)N(CCCC)CCCC`, the survivor count (dose: 400.0 mg/kg/injection, schedule: Q01DX009 (ip), vehicle: carboxymethylcellulose (CMC)) was 2 of 3.

Turning to `[Br][Hg][Br].c1ccc([PH+](CO[PH+](c2ccccc2)c2ccccc2)c2ccccc2)cc1`, the survivor count runs as follows: (dose: 75.0 mg/kg/injection, schedule: Q01DX009 (ip), vehicle: carboxymethylcellulose (CMC)) 6 of 6; (dose: 150.0 mg/kg/injection, schedule: Q01DX009 (ip), vehicle: carboxymethylcellulose (CMC)) 0 of 6; (dose: 300.0 mg/kg/injection, schedule: Q01DX009 (ip), vehicle: carboxymethylcellulose (CMC)) 0 of 6.

On to `CC(NC1=NCCO1)c1cccc2ccccc12` (centres undefined), for which the survivor count under setting [3] is 2 of 6.

On to `COc1cc(C)c(CN(C)C)c(OC)c1`, for which the survivor count by setting is: (dose: 18.0 mg/kg/injection, schedule: Q01DX Z (ip), vehicle: methylcellulose (MC)) 6 of 6; (dose: 40.0 mg/kg/injection, schedule: Q01DX Z (ip), vehicle: methylcellulose (MC)) 6 of 6; (dose: 60.0 mg/kg/injection, schedule: Q01DX Z (ip), vehicle: methylcellulose (MC)) 5 of 6.

Regarding `CSc1ccc(NCN2C(=O)c3ccccc3C2=O)cc1`, the survivor count under setting [7] is 5 of 6.

In the case of `C[N+]1(Cc2ccccc2)C2CCC1C(=O)N(Cc1ccccc1)C2=O` (centres undefined), under “dose: 300.0 mg/kg/injection, schedule: Q01DX001 (ip), vehicle: saline”, the survivor count was 0 of 6.

Take `CN=C(N)c1ccc(NC(=O)c2ccc(C(=O)Nc3ccc(C(N)=NC)cc3)c(Cl)c2)cc1`: the T/C is, setting by setting: (dose: 3.75 mg/kg/injection, schedule: Q01DX Z (ip), vehicle: saline) 135 % of control; (dose: 15.0 mg/kg/injection, schedule: Q01DX Z (ip), vehicle: other) 144 % of control. Also, the survivor count reads like this: (dose: 30.0 mg/kg/injection, schedule: Q01DX Z (ip), vehicle: other) 5 of 6; (dose: 60.0 mg/kg/injection, schedule: Q01DX Z (ip), vehicle: other) 0 of 6; (dose: 120.0 mg/kg/injection, schedule: Q01DX Z (ip), vehicle: other) 0 of 6.

Consider `NNc1ccc(Br)cc1`, for which the survivor count under setting [6] is recorded as 1 of 3.

`Cc1[nH]nc2c(=O)[nH]c3ccccc3c12`: the survivor count (dose: 75.0 mg/kg/injection, schedule: Q01DX001 (ip), vehicle: Klucel (hydroxypropylcellulose) (HPC)) is recorded as 6 of 6.
